Laboratory results: PMC4980431, “Ctf4 Is a Hub in the Eukaryotic Replisome that Links Multiple CIP-Box Proteins to the CMG Helicase” (Molecular Cell, 2016)
These are yes or no findings as the source states them, for the method shown. For some of these results: A result given as binding can be weak or reduced; the word gives no strength.

The chains behind the UniProt entries cited, without tags or fusion partners. Where a name states a change or a piece, a line headed by the entry shows the natural chain unless it says otherwise.
UniProt P21951: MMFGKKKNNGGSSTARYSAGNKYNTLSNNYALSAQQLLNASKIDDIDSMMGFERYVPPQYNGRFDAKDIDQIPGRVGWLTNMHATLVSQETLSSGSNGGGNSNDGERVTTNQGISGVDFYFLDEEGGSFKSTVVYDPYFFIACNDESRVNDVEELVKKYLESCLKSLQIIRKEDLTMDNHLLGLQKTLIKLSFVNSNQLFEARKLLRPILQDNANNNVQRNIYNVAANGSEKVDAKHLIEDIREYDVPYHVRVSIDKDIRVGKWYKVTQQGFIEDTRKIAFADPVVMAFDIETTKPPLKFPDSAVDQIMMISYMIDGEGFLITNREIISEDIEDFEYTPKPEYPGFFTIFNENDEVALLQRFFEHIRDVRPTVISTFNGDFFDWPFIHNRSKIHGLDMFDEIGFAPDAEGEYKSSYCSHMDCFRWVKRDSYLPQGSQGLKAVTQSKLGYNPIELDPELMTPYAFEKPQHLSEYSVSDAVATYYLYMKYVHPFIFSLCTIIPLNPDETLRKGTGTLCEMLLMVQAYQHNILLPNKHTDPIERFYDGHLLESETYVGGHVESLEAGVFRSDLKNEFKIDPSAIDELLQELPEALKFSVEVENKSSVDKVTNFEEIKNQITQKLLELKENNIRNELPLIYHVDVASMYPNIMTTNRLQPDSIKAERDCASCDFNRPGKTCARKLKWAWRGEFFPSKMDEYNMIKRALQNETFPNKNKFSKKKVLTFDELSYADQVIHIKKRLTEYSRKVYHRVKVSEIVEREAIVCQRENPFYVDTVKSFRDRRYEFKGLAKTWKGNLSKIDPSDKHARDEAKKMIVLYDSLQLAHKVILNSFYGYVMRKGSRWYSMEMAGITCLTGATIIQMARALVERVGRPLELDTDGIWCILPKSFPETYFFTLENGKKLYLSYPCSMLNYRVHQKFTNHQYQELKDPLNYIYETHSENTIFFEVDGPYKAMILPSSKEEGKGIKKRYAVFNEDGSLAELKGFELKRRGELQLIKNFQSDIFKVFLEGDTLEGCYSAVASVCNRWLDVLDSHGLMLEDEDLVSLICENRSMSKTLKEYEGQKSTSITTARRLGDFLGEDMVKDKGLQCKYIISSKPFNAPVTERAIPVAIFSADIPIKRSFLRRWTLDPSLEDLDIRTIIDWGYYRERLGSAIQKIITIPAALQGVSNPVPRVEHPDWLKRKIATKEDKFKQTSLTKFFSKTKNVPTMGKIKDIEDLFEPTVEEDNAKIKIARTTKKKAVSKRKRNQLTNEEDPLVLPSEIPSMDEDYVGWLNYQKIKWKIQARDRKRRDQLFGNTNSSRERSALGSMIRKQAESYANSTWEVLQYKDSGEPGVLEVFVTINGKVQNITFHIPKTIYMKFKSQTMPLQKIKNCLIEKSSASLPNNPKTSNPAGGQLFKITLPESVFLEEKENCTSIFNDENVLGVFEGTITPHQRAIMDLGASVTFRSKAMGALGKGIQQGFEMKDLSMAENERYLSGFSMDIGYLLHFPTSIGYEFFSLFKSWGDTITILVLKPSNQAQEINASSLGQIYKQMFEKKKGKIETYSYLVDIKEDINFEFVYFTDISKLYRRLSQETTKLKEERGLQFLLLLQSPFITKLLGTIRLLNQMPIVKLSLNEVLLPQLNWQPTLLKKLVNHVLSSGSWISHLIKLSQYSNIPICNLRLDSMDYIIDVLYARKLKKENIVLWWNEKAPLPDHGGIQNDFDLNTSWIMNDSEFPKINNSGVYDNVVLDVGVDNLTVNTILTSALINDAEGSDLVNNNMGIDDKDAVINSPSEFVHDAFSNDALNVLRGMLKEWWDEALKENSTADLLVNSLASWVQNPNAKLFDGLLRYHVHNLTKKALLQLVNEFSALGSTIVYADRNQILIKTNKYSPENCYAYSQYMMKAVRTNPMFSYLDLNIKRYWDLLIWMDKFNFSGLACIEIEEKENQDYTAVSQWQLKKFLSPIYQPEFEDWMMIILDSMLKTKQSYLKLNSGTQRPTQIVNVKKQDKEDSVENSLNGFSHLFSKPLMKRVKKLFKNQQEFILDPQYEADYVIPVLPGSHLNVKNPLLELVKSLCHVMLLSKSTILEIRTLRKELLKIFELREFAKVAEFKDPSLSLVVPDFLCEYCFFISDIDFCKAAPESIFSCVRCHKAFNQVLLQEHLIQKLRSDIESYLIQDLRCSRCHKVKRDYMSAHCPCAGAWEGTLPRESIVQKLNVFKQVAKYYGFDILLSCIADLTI
UniProt P24482: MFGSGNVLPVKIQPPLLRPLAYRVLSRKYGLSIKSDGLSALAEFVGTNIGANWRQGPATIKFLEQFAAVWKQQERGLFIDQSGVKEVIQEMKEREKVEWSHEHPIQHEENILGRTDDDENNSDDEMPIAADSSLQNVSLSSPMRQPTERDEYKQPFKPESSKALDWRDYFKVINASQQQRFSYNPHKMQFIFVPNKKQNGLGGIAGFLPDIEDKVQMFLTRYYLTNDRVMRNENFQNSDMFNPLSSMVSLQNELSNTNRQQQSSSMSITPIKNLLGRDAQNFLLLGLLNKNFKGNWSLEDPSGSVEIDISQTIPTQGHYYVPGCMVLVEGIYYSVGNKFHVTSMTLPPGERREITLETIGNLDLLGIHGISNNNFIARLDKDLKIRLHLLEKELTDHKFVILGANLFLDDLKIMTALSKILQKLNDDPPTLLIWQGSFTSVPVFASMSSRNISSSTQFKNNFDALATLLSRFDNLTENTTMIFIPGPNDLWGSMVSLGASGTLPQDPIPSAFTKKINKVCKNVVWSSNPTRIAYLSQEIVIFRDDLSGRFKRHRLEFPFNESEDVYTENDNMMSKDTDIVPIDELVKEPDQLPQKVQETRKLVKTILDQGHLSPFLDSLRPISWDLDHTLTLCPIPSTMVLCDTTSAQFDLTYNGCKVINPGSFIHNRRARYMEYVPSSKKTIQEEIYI
UniProt Q02208: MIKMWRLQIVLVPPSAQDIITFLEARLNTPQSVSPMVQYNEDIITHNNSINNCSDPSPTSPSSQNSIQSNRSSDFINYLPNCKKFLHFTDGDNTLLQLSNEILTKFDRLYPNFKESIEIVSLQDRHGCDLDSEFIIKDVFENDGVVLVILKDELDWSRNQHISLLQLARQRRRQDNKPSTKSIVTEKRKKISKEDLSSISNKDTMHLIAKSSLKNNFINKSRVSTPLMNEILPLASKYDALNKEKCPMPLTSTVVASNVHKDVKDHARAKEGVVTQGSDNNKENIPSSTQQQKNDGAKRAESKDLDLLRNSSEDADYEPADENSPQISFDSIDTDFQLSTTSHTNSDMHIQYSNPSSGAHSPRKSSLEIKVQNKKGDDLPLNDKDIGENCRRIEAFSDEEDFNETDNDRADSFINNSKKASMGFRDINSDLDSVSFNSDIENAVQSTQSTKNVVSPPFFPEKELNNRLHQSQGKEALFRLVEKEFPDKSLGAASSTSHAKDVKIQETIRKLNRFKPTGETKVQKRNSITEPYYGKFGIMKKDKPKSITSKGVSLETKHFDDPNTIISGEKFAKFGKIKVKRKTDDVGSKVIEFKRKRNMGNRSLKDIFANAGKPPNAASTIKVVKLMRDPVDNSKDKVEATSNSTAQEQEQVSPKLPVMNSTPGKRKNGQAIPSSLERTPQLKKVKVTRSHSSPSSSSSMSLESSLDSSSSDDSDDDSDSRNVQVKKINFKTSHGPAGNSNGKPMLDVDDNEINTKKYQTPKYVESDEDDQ

Columns and labels:
[1] = biological target: T1, Ctf4 461–927 (budding yeast) (UniProt Q01454); assay: two-hybrid; directed yeast two-hybrid assay, fusions to the activation and DNA-binding domains of Gal4
T1 sequence: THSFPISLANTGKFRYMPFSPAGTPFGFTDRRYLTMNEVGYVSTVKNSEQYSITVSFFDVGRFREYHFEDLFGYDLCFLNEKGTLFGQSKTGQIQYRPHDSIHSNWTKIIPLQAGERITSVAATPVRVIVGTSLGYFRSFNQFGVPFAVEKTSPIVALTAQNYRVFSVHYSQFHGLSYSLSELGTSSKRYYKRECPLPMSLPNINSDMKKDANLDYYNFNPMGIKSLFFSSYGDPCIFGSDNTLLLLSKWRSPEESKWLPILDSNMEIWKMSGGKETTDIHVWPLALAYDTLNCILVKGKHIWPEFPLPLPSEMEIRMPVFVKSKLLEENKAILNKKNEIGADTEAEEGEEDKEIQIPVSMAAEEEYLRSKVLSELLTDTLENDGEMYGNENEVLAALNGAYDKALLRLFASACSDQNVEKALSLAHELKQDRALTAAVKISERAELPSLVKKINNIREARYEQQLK

[2] = biological target: Pol2 catalytic subunit of Pol ε (two-hybrid) (budding yeast) (UniProt P21951); assay: as above
[3] = biological target: T1, Ctf4 461–927 (budding yeast); assay: two-hybrid; yeast two-hybrid screen against amino acids 461–927 of Ctf4, performed by Hybrigenics

Substance	binding [1]	binding [2]	binding [3]
Dpb2 with mutations in the type II CIP-box (two-hybrid) (from UniProt P24482)	no binding	binds	
Tof2 with mutations in the predicted CIP-box (two-hybrid) (from UniProt Q02208)	no binding		
central β-propeller domain of Ctf4 (two-hybrid screen) (from UniProt Q01454) (domain or fragment)			binds
